Assay results: PubChem BioAssay AID2685 (National Center for Advancing Translational Sciences (NCATS), 2010)
Values joined by “and” are separate entries in the source; they are usually repeats but may differ in a detail not shown here. Identical values can stand only once. About 2,100 (0.66%) of roughly 320,000 compounds were called active. The inconclusive results got no clear call from the source; some entries with a clear call stand among them for comparison. The call rests on the fitted dose curve; in most records, active means well fitted inhibition curve with a large enough effect in the signal ratio, with a control signal flat (not every such curve was filed as active); inconclusive means small, poorly fitted or top-dose-only effect, or effect the other way, or a change in a side signal; inactive means flat fitted curve, though single readings scatter; the % refers to the signal ratio. Potencies of inconclusive entries are doubtful fits and often do not repeat.

experiment: qHTS Assay for Lipid Storage Modulators in Drosophila S3 Cells; settings: BODIPY lipid droplet fluorescence, 18-24 h, cells fed with added oleic acid; lipid storage change, negative = inhibition: at 46.1 µM (top of the series) unless noted
Procedure, shortened: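 Drosophila S3 cells loaded with oleic acid (400 uM, as added) and compounds at several concentrations; lipid droplets imaged by 488-nm laser-scanning cytometry, 500–530 nm intensity and object ratio to cell channel. Percent activity normalized to 20 uM Triacsin C.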
On the % scale 0 is the no-effect control and ±100 the full control effect; potency means the concentration at half of the fitted maximal effect.

Compound	lipid storage change, negative = inhibition	Potency
CCOC(=O)C1=C(N)OC2=C(C(=O)CC(C)(C)C2)C1c1cccnc1 (stereo not drawn)	inactive	–
O=C(N/N=C/c1ccccc1)c1cc(-c2ccc3c(c2)OCO3)n[nH]1	inconclusive: 19%	–
Cc1cccc(OCCOC(=O)CN2C(=O)NC3(CCCC3)C2=O)c1	inconclusive	–
CCCCN(C(=O)C1CCC1)c1c(N)n(CC(C)C)c(=O)[nH]c1=O	inconclusive	–
O=c1[nH]n(-c2ccccn2)c(=O)c2ccccc12	inconclusive: -41.1%	–
O=C(O)CCC(=O)Nc1ccc(-c2nc3ccc(C(=O)c4ccccc4)cc3[nH]2)cc1	–	inconclusive: 0.0058 µM [activator, full curve, poor fit]
CC(=O)OCC1OC(n2ccc(=O)[nH]c2=O)C(O)C1O (stereo not drawn)	inconclusive: -15.3%	–
O=C(O)CC(SCC(=O)Nc1ccccc1)C(=O)O (stereo not drawn)	inconclusive: 28.1%	–
CC1CC(C)CN(C(=O)CCCn2c(=S)[nH]c3ccccc3c2=O)C1 (stereo not drawn)	inconclusive: -33.2%	–
CC12CN3CC(C)(CN(C1)C3c1ccc(Cl)cc1Cl)C2O (stereo not drawn)	inconclusive: -152%	–
O=C(CSc1nnnn1Cc1ccccc1)Nc1ccccc1	inconclusive: 22.3%	–
CNC(=S)NC1CC2CCCC(C1)N2Cc1ccccc1OC (stereo not drawn)	inconclusive: -26.1%	–
O=C(NCC(O)CO)c1csc(Nc2cccc3ccccc23)n1 (stereo not drawn)	inconclusive: 64.6%	–
CCOC(=O)/C=C1\CN(Cc2cc(OC)c(OC)c(OC)c2)S(=O)(=O)c2ccccc21	–	inconclusive: 0.103 µM [activator, full curve, poor fit]
Cc1cc2c(c(=O)n1Cc1cccnc1)C(c1ccc(F)cc1)C(C#N)=C(N)O2 (stereo not drawn)	–	inconclusive: 0.58 µM [rising, partial curve]
Cc1onc(-c2c(F)cccc2Cl)c1C(=O)NNC(=O)C1CCN(Cc2ccccc2)CC1	inconclusive: 5.51%	–
Cc1ccc(C(=O)OCC(=O)c2ccc(Cl)s2)s1	inconclusive: 10.4%	–
Cc1ccc(Sc2ccc(CO)cc2[N+](=O)[O-])cc1	inconclusive: 6.63%	–
Cc1nc(C)n(CC(=O)c2ccc(Cl)cc2Cl)n1	inconclusive: 0.0063%	–
Cc1ccccc1Nc1cc(C(=O)NCC2CCCO2)c2ccccc2n1 (stereo not drawn)	inconclusive: 17.5%	–
Cn1c(Br)nc2c1c(=O)n(CC(O)COc1ccccc1)c(=O)n2C (stereo not drawn)	–	inconclusive: 5.17 µM [activator, full curve]
COC(C(=O)Nc1ccc(S(=O)(=O)Nc2cccc3ccccc23)cc1)c1ccccc1 (stereo not drawn)	inconclusive: -1.78%	–
Cc1ccc2nc(N(CCCN(C)C)C(=O)c3ccc(S(=O)(=O)N4CCOCC4)cc3)sc2c1	inconclusive: 29.1%	–
COc1cccc(CC(=O)NCC2COc3ccccc3O2)c1OC (stereo not drawn)	–	inconclusive: 6.51 µM [activator, partial curve, poor fit]
CO/N=C\CC(=O)Nc1ccc(Cl)cc1Cl	–	inconclusive: 9.2 µM [falling, single point]
CS(=O)(=O)NCCNc1ccc(C(F)(F)F)cc1[N+](=O)[O-]	inconclusive: 22.4%	–

Compound	lipid storage change, negative = inhibition	Potency
COc1cc(CN(CC2CCCO2)C(=O)c2cccs2)cc(OC)c1OC (stereo not drawn)	inconclusive: 12.2%	–
O=C(NNc1ccccc1Br)C(O)(c1cccc(C(F)(F)F)c1)c1cccc(C(F)(F)F)c1	–	inconclusive: 29.1 µM [cytotoxic, single point]
COc1ccc(N2CCN(CCC(N)=O)CC2)cc1	inconclusive: -20.4%	–
O=C(O)CN1C(=O)SC(Nc2ccc(C(=O)O)cc2)C1=O (stereo not drawn)	inconclusive: 2.06%	–
CCOC(=O)CNC(=O)CSc1nnc(-c2cccc(OC)c2)n1CC	inconclusive: 19.5%	–
CCOc1ccc(C(C(=O)NC2CCCC2)N(CCOC)C(=O)CNC(=O)c2ccco2)cc1 (stereo not drawn)	–	inconclusive: 3.26 µM [activator, single point]
Cc1ccc(NS(=O)(=O)c2ccc(F)cc2)nc1	inconclusive: 255%	–
CCCC(=O)Nc1cc(C)c(NC(=O)Cc2ccccc2)cn1	inconclusive: 16.5%	–
Cc1cccc(CCN(CC(=O)NCc2ccc(F)cc2)C(=O)c2csnn2)c1	inconclusive: -18.1%	–
O=C(CCCOc1ccccc1)Nc1nccs1	–	inconclusive: 5.17 µM [activator, single point]
CCOC(=O)c1sc(NC(=O)c2ccccc2OC)nc1C	inconclusive: 46.5%	–
COc1ccc(OC)c(C(=O)NC(CC(N)=O)c2ccc(NCCN3CCOCC3)c([N+](=O)[O-])c2)c1 (stereo not drawn)	inconclusive: 13.9%	–
CCSc1nnc2c(n1)OC(c1ccc(C(=O)O)cc1)N(C(C)=O)c1ccccc1-2 (stereo not drawn)	inconclusive: 5.1%	–
O=C(O)CN(Cc1ccccc1)S(=O)(=O)c1ccc(F)cc1	–	inconclusive: 0.461 µM [falling, partial curve, poor fit]
CCC(=O)NC(C)c1cc(Cl)c2cccnc2c1O (stereo not drawn)	inconclusive: -2.41% and inconclusive: -3.93%	–
Cc1cc(C)n(-c2ccc(C(=O)OCn3nnc4ccccc4c3=O)cc2)n1	–	inconclusive: 3.26 µM [activator, partial curve]
COC(=O)C(NC(=O)c1ccc(OC)cc1)(Nc1ncc(S(=O)(=O)c2ccc([N+](=O)[O-])cc2)s1)C(F)(F)F (stereo not drawn)	inconclusive: 87.8%	–
CCc1cc2c(N3CCN(c4nnc(CC)s4)CC3)ncnc2s1	inconclusive: 50.9%	–
CC(Sc1nnc(N)s1)C(=O)Nc1ccc2c(c1)OCCO2 (stereo not drawn)	inconclusive: 43.6%	–
FC(F)(F)c1cccc(NC(=S)NCCc2ccccn2)c1	inconclusive: 67.8%	–
COc1cccc(-c2nn(C)c3sc(C(=O)NCc4ccc(C)cc4)cc23)c1	inconclusive: -30.2%	–
O=C(NC1(C(=O)NC2CCCCC2)CCCCC1)c1ccc2c(c1)OCO2	inactive	–
CC(C)NC(=O)c1ccc(CS(=O)(=O)c2ccc(Br)cc2)o1	inconclusive: 44.7% [activator]	–
O=C(Nc1ccc(F)cc1)C1CC(=O)n2ncnc2N1 (stereo not drawn)	–	inconclusive: 5.8 µM [cytotoxic, full curve]
CCOc1ccc(NS(=O)(=O)c2ccc3[nH]cc(C(=O)NC(C)CC)c(=O)c3c2)cc1 (stereo not drawn)	inconclusive: 30.9%	–
CN(C)CCCN(C(=O)COc1ccccc1)c1nc2ccc(F)cc2s1	inactive	–

Compound	lipid storage change, negative = inhibition	Potency
CN1CCN(c2ccccc2NC(=O)c2ccc(N3CCCCC3)c([N+](=O)[O-])c2)CC1	inconclusive: 8.48%	–
COc1ccc(S(=O)(=O)N2CCCCCC2)cc1C(=O)Nc1cccc(C)n1	–	inconclusive: 35.5 µM [falling, single point]
O=C(CCS(=O)(=O)c1ccccc1)N1CCN(c2ccc(F)cc2)CC1	–	inconclusive: 0.58 µM [activator, single point]
CCN(CC(=O)Nc1ccc(OC)c(OC)c1)CC(=O)Nc1ccccc1C(F)(F)F	inconclusive: 8.15%	–
COc1cc(N2CCCC2)c(OC)cc1/C=C1/NC(=S)NC1=O	–	inconclusive: 29.1 µM [cytotoxic, partial curve, poor fit]
CC1CCCCC1NC(=O)C1CCN(S(=O)(=O)c2cccc3nonc23)CC1 (stereo not drawn)	–	inconclusive: 7.31 µM [activator, partial curve]
CCC(C)(CC(=O)Nc1nccs1)c1ccccc1 (stereo not drawn)	inactive	–
COCCCNC(=O)CN(Cc1ccc(Cl)cc1)S(C)(=O)=O	inconclusive: 18.1%	–
N#Cc1c(C(F)(F)F)cc(-c2ccco2)nc1SCc1ccncc1	inconclusive: -32%	–
CSCCC(NC(=O)c1ccco1)C(=O)OCc1cc([N+](=O)[O-])cc2c1OCOC2 (stereo not drawn)	inconclusive: 4.9%	–
O=C(O)C1=C(C(=O)Nc2ccc(F)c(Cl)c2)CCCC1	inconclusive: -31.9%	–
O=[N+]([O-])c1ccc(Nc2ccccc2O)c2nonc12	–	inconclusive: 6.51 µM [falling, single point]
O=C(NCCN1C(=O)S/C(=C\c2ccc(Cl)c([N+](=O)[O-])c2)C1=O)C1=COCCO1	inactive	–
CCOC(=O)c1c(NC(=O)C2CCCN(S(=O)(=O)c3ccccc3)C2)sc2c1CCCC2 (stereo not drawn)	inconclusive: -58.1%	–
Cc1c(C)c2cccnc2c2ncccc12	inconclusive: -33.3%	–
Cc1cc(=O)n2nc(N3CCC(C(=O)NCc4ccccc4F)CC3)sc2n1	–	inconclusive: 3.26 µM [activator, partial curve]
CN(C)C(=O)c1sccc1Oc1ccc(F)cc1[N+](=O)[O-]	inconclusive: -22.3%	–
COc1ccc(-c2cn[nH]c2C)cc1OC	inconclusive: 4.57%	–
COc1ccc(C(=O)N/N=C/c2ccc(OC)c(CN3CCCc4ccccc43)c2)cc1	–	inconclusive: 0.461 µM [activator, full curve, poor fit]
Cc1ccccc1NC(=O)NC1(C(=O)NCC2CCCO2)CCCCC1 (stereo not drawn)	inconclusive: 101%	–
C=C(C)C1CC=C(C)/C(=N/NC(=O)COc2ccccc2C)C1 (stereo not drawn)	–	inconclusive: 8.2 µM [activator, partial curve]
CCOC(=O)C1=NNC2(c3ccc(Cl)cc3)C(=O)N(c3ccc(C)cc3)C(=O)C12 (stereo not drawn)	inconclusive: 18%	–
Cc1c(NC(=O)c2ccc3ncccc3c2)c(=O)n(-c2ccccc2)n1C	–	inconclusive: 6.51 µM [falling, single point]
CCOc1ccc(C(=O)N2CCN(c3ccccn3)CC2)cc1OCC	inconclusive: 66.4%	–
COc1ccc(C(=O)NCC(=O)OCC(=O)N2CCc3ccccc32)cc1	inconclusive: 10.1%	–
CCOC(=O)c1nc2c(ccc3ccccc32)cc1C	inconclusive: 15.4%	–
